# Library screen at single concentrations

The chains behind the UniProt entries cited, without tags or fusion partners. Residues count along the entry.
UniProt A4I591, 1-473: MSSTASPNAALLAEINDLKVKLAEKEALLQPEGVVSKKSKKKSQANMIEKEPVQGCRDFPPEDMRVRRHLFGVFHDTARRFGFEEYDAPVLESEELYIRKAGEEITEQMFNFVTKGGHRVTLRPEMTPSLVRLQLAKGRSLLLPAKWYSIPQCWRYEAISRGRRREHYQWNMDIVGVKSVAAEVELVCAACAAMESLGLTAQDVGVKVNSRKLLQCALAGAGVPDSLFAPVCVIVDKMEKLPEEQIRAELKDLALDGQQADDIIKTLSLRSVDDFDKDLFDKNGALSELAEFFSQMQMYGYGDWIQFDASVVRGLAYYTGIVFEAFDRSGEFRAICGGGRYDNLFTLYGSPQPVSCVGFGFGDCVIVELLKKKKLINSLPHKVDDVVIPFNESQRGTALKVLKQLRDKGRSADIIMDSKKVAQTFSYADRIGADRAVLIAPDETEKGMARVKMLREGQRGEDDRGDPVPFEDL

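Enzyme assay of histidyl-tRNA synthetase; the read-out is not stated. Target: Histidine-tRNA ligase, Leishmania infantum (UniProt A4I591). Tested at 30 µM. Direction is inferred from retests: higher values go with stronger inhibition. The assay is labelled LdHisRS but filed under L. infantum. Size under these conditions: about 69,000 compounds, about 410 of them at 50% or above in at least one test.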

Each number is a percent effect as filed.
How 0% and 100% were set is not recorded. Most values in the screen are low, and negative values occur.
The compounds are a random part of those screened.

CCCN1CCC(N2CCC(Cn3cc(C4CC4)nn3)CC2)CC1 read 7.843%. Cc1cc(C(C)(O)CNC(=O)OC(C)(C)C)c(C)o1 (stereo not shown) read 15.52%. CCC(O)CN1CCN(C(=O)c2cc(Cl)cc3cccnc23)CC1 (stereo not shown) read 10.19%. CN1CC(=O)N(c2cnn(C)c2)CC12CCN(Cc1ccccc1)C2 (stereo not shown) gave -11.43%.

COc1cccc2c1OCC(CNc1ccc(C)nn1)C2 (stereo not shown) read 4.301%. Result for CNc1nc2c(s1)C(c1cccc(Cl)c1Cl)CC(=O)N2 (stereo not shown) was 42.5%. CC(O)C(=O)N1CCC(c2[nH]ncc2-c2ccccc2)CC1 (stereo not shown) read 20%. CSc1ccc(CNC(c2ccccc2)c2nccn2C)cc1 (stereo not shown) read 21.54%.

With CCCc1cncnc1N1CCC(NCc2cc3ccccc3[nH]2)CC1 the screen gave 22.37%. Fc1cc(CN2CCOC3(CCOCC3)C2)ccc1OC(F)F read 10.96%. COc1cc(NC(=O)N2CCCC2c2ccco2)cc(OC)c1 (stereo not shown) read 9.783%. O=C(O)c1c[nH]c2cc(NS(=O)(=O)c3cccc(F)c3F)ccc12 read 36.54%.

For COCCOc1ccc(-c2noc([C@@H]3CCCN3)n2)cn1 the result was 13.89%. CNC(=O)c1cccc(CNC2CCCSc3ccccc32)c1 (stereo not shown) gave 4.202%. With CC(=O)N1CCC(Cc2cnc(-c3c(C)nn(C)c3C)cn2)C1 (stereo not shown) the screen gave 3.65%. CCN1CCN(C)C(=O)C12CCN(C(=O)Cc1ccccn1)CC2 gave 9.615%.

Result for O=C(NCCN1CCOCC1)NCC(O)c1cccc(F)c1 (stereo not shown) was 26.19%. With COC(=O)C1CCN(C(=O)c2ccc(NS(C)(=O)=O)c(C)c2)CC1 the screen gave 3.81%. COc1ccnc(N2C[C@@H]3CC[C@H](C2)N(CC2CC2)C3)n1 gave 20.97%. Result for COc1cccc(S(=O)(=O)CCN2CCn3c(C)nnc3C2)c1 was 10.71%.

With CCc1nnc2n1CCN(CCC(=O)Nc1sccc1C#N)C2 the screen gave 13.46%. CN(Cc1cn(C2CCNCC2)nn1)CC1CCCO1 (stereo not shown) read 10%. CSCC(=O)N[C@H]1CC[C@H](Nc2nccc(-c3ccncc3)n2)C1 gave 15.38%. CCOCc1nnc(NCc2ccsc2)o1 read 9.167%.

Cc1cc(C)nc(N2CCC(c3nnc(CN(C)C)n3C3CC3)CC2)n1 read 3.03%. For COc1ccc2c(c1)c(C(=O)Nc1n[nH]c(C(C)C)n1)cn2C(C)C the result was 22.92%. Nc1nccc(C2CCCN2CCc2ccccc2)n1 (stereo not shown) read 18.44%. With O=C(O)c1ccc(=O)n(CC(c2ccc(Cl)cc2)N2CCCCCC2)c1 (stereo not shown) the screen gave 24.64%.

With Cn1nc(C(=O)NCc2cccs2)c2c1CCS(=O)(=O)C2 the screen gave 15.52%. CC(=O)N1CCC(Oc2ccc(Cl)cn2)CC1 gave 13.46%. For Cn1cc([C@@H]2CN(S(=O)(=O)c3ccccc3F)C[C@H]2N)c2ccncc21 the result was 7.246%. For CCc1ccc(C(=O)Nc2ccc3c(c2)N(C)CCN(C)C3)o1 the result was 15.96%.

O=C(Cn1cc(I)cn1)N1CCCC1 read 5.825%. For NC(=O)CN1CCC(NCc2cc(C(F)(F)F)ccc2Cl)CC1 the result was 21.69%. With Cc1nn(-c2ccccc2)c(C)c1-c1ccnc(N2CCCNCC2)n1 the screen gave 8.602%. For Cc1cc(=O)n(CC(=O)NC(C)C)c(Nc2ccc(F)c(C)c2)n1 the result was 2.174%.

Result for COCC(=O)N1CCN(C(=O)CCc2ccsc2)CC1 was 15.79%. COc1ccc(CN2CCc3ncnc(OC(C)C)c3CC2)cc1 gave 1.887%. Cc1nc(O)cc(CCNC(=O)c2ccc(CN3CCCCC3)cc2)n1 gave 10.67%. CCc1ccc(CNC(=O)N2CCN(Cc3cc(C)no3)CC2)s1 read 7.576%.

For O=C(CC1CCCC1)N1C[C@@H]2C[C@H]1CN2 the result was -9.709%. With O=C(COCCc1ccccc1)N1CCCC(n2cccn2)C1 (stereo not shown) the screen gave 8.264%. O=C(NCCCN1CCOCC1)c1nc(-c2ccc3cc[nH]c3c2)no1 read 10.53%. With Cc1cc(CNC(=O)N2CCN(c3ccc(Cl)cn3)CC2)c(C)o1 the screen gave 17.12%.

For CCOCc1nn(C)c2c1CN(C(=O)c1ccno1)CC2 the result was 17.54%. O=C(Nc1ccccc1)c1cc2n(n1)CCCN(C(=O)N1CCCC1)C2 gave 16.48%. With COCC(=O)N1CCc2ccc(=O)n(Cc3csc(C)n3)c2CC1 the screen gave 11.11%. O=C(CCc1cscn1)N1CCCC(n2cncn2)C1 (stereo not shown) read 0%.

Cc1ncsc1CN1C[C@@H](OCC(=O)N(C)C)[C@H]2OCCC[C@H]21 read 14.47%.

The first 4 entries again:

| compound | percent effect |
|---|---|
| `CCCN1CCC(N2CCC(Cn3cc(C4CC4)nn3)CC2)CC1` | 7.843% |
| `Cc1cc(C(C)(O)CNC(=O)OC(C)(C)C)c(C)o1` (stereo not shown) | 15.52% |
| `CCC(O)CN1CCN(C(=O)c2cc(Cl)cc3cccnc23)CC1` (stereo not shown) | 10.19% |
| `CN1CC(=O)N(c2cnn(C)c2)CC12CCN(Cc1ccccc1)C2` (stereo not shown) | -11.43% |

Source: ChEMBL document CHEMBL3988442, “University of Dundee, Small-Polar-MMV Screening Library” (2021).